Out of some 340,000 compounds screened, about 170 (0.05%) were called active. Inconclusive means that the source gave no clear call. Such entries were picked first, then a sample of the others. Calls come from the whole dose curve; as a rule, active = well fitted inhibition curve with a large enough effect in the signal ratio, with a control signal flat (not every such curve was filed as active); inconclusive = small, poorly fitted or top-dose-only effect, or effect the other way, or a change in a side signal; inactive = flat fitted curve, though single readings scatter; the % refers to the signal ratio. A potency beside an inconclusive call is a rough fit, not a confirmed value.
Assay: qHTS Assay to Find Inhibitors of Chronic Active B-Cell Receptor Signaling;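 for activity change, negative = inhibition: plate controls were basal doxycycline-induced cells for no effect and cells given 10 µM MG132 for full effect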
Details: ABC-DLBCL IkBa-CBG/CBR reporter, luminescence ratio (green luciferase fused to IkBa over red control in TMD8 lymphoma cells), 4 h; activity change, negative = inhibition: at 46.1 µM (top of the series) unless noted
Method in brief: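 TMD8 ABC-DLBCL cells carrying doxycycline-inducible green luciferase fused to IkappaBalpha plus unfused red luciferase were exposed to compounds (up to 46 uM) for 4 hrs at 37C. Activity came from the overlap-corrected green/red luminescence ratio.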
Potency is the fitted concentration of half-maximal effect.

Compound | Potency | activity change, negative = inhibition
CC(C)c1nc2c(c(=O)c3ccccc3n2C)c(=O)n1CCc1ccccc1 | inconclusive: 3.55 µM [falling, partial curve] | –
CN1CCN(CCCOc2ccc(-c3ccccc3)cc2)CC1 | – | inactive
CCOC(=O)CSc1nc2ccccc2c(=O)n1CCN1CCOCC1 | – | inactive
N/C(Cc1ccc(Cl)c(Cl)c1)=N\OC(=O)c1ccc(Br)o1 | – | inconclusive: 14.2%
O=C(NN=C1C2CC3CC(C2)CC1C3)c1cc(Cl)ccc1O | – | inconclusive: 208%
CCOc1ccc(-c2cc(N3C(=O)Nc4ccccc4N3O)on2)cc1 | inconclusive: 23.1 µM [falling, single point] | –
Cc1cc(C)c(NC(=O)/C(=C/c2ccco2)c2ccccc2)c(C)c1 | – | inactive
CCOC(=O)c1ccc(NC(=S)N(CCCN(CC)CC)Cc2ccco2)cc1 | – | inactive
COc1ccccc1N1CCN(C(=S)Nc2ccc(S(=O)(=O)N3CCOCC3)cc2)CC1 | – | inactive
O=C(CNC(=O)c1cccnc1)N/N=C/c1ccc(O)cc1O | – | inconclusive: -3.91%
Cc1nn(CC(=O)Nc2ccc3c(c2)nc(CCN2CCCCC2)n3C)c(=O)c2ccccc12 | inconclusive: 25.9 µM [falling, single point] | –
Oc1ccc(CNCc2ccc3c(c2)OCO3)c2cccnc12 | active: 14.6 µM | –
O=C(c1ccc(Cl)cc1)N1CCN(CCOc2ccccc2)CC1 | – | inactive
O=C(Oc1oc(-c2ccco2)nc1C=Nc1ccccc1)c1ccoc1 | – | inconclusive: 1.67%
O=c1[nH][nH]c(-c2ccccc2)c1C=Nc1ccccc1 | inconclusive: 12.6 µM [falling, partial curve, poor fit] | –
Cc1ccc(C)c(-c2csc(NC(=O)c3c(C)noc3C)n2)c1 | – | inconclusive: 3.12%
C=CCN1C(c2ccc(OCC)cc2)=CS/C1=C(\C#N)c1nnc2n1CCCCC2 | – | inconclusive: -6.52%
Cc1cc(NC(=O)Cn2nnc3sc4c(c3c2=O)CCC(C(C)(C)C)C4)no1 (stereo unspecified) | – | inconclusive: 11.2%
Cc1ccn2c(c1)nc(=S)n2C(=O)c1ccccc1 | inconclusive: 8.2 µM [falling, partial curve] | –
CC(C)n1c(C(=O)OCC(=O)NCc2ccc3c(c2)OCO3)cc2occc21 | – | inconclusive: -15.1%
COc1ccc(C(=O)OCC(=O)NCC2CCCCC2)c(OC)c1 | – | inactive
CC(CN1CCOCC1)OC(=O)c1ccc2c(c1)OCCO2 (stereo unspecified) | inconclusive: 35.5 µM [falling, partial curve, poor fit] | –
CCN1CCN(c2cc(C)c3cc(NC(=O)c4cncc(Br)c4)ccc3n2)CC1 | inconclusive: 3.16 µM [falling, partial curve, poor fit] | –
O=C1COc2ccc(C(=O)COc3ccc(Cl)cc3Br)cc2N1 | – | inconclusive: 7.8%
CC(CC(=O)O)Nc1ccccc1O (stereo unspecified) | inconclusive: 15.8 µM [falling, single point] | –
Nc1cnc(Nc2ccc(Br)cc2)nc1N | – | inconclusive: -18.6%

Compound | Potency | activity change, negative = inhibition
CCn1c(=O)n(CC)c2cc(S(=O)(=O)N3CCc4ccccc43)ccc21 | – | inactive
COc1cccc(NC(=O)CN2C(=O)C3(OCCCO3)c3ccccc32)c1 | – | inconclusive: -0.897%
O=C(CSc1nccc(=O)[nH]1)Nc1ccc2c(c1)OCCO2 | inconclusive: 10 µM [falling, partial curve] | –
COc1cccc2cc(C(N)=O)/c(=N\NC(=O)c3ccccc3)oc12 | inconclusive: 5.62 µM [falling, single point] | –
CCC(=O)Nc1cccc(C2=NOC3(C2)C[C@@H](C(N)=O)N(C(=O)c2ccccc2C(=O)c2ccccc2)C3)c1 (stereo partly specified) | – | inactive
Nc1ccc(Cc2nc3cc4ccccc4cc3[nH]2)cc1 | inconclusive: 3.55 µM [falling, partial curve] | –
Cc1nc(CSc2nnc(Nc3cccc(C)c3C)s2)cs1 | – | inconclusive: -2.62%
CCOC(=O)c1ccc(N2C(=O)C(CC(N)=O)N(NC(=O)c3cccc(F)c3)C2=S)cc1 (stereo unspecified) | inconclusive: 14.1 µM [falling, partial curve] | –
CC(NC(=O)c1ccccc1NC(=O)c1ccco1)c1ccccc1 (stereo unspecified) | – | inconclusive: 4.71%
Cc1ccc(CNC(=O)CN(C2CCCCC2)S(C)(=O)=O)cc1 | – | inactive
O=C(NCC(=O)N1CCN(S(=O)(=O)c2ccc3c(c2)OCCO3)CC1)c1ccccc1F | – | inconclusive: 2.4%
O=C(Nc1nc2ccccc2[nH]1)C1CCN(C(=O)c2ccc(F)cc2)CC1 | inconclusive: 1.3 µM [falling, full curve] | –
CC(=O)Nc1ccc(S(=O)(=O)Nc2c(C)n(C)n(-c3ccccc3)c2=O)cc1 | – | inconclusive: 5.42%
Cc1ccc2c(c1)COc1c3ccc(C(=O)N[C@@H](CO)C(C)C)cc3nn1-2 | – | inactive
O=C(NCc1cccc(F)c1)c1cccc(OC2CCN(C(=O)C3CC3)CC2)c1 | – | inactive
CCOC(=O)C(=O)Nc1nnc(CCc2ccccc2)s1 | – | inconclusive: -0.974%
Cn1cc(C(=O)c2ccc(F)cc2)cc1-c1nc2ccccc2n1C | – | inconclusive: 17.3%
Cc1ccc(NC(=S)NCCSc2ccc(Cl)cc2)cc1 | – | inactive
CN(C)c1ccc(C(=O)OCC(=O)Nc2cccc(S(=O)(=O)N3CCCC3)c2)cc1 | – | inconclusive: -7.12%
C[C@H](CO)N1C[C@H](C)[C@@H](CN(C)Cc2ccc(Cl)c(Cl)c2)Oc2c(NS(=O)(=O)c3ccc(F)cc3)cccc2C1=O | – | inconclusive: -4.52%
CC(C)(C)c1ccc(-c2csc(NNC3=NCCCCC3)n2)cc1 | – | inconclusive: 10.4%
Cc1cccc(C(=O)N(Cc2nc3ccccc3c(=O)[nH]2)C2CCCCC2)c1 | – | inconclusive: -0.319%
COc1ccc(-c2cc(=O)oc3cc(OC(=O)C4CCCCC4)c(Cl)cc23)cc1 | – | inconclusive: 18.3%
COc1cccc(/C=C(\C#N)c2nc3ccc(C)cc3[nH]2)c1OCC(=O)O | – | inactive
COc1cc(OC)c(OC)cc1/C=N/NC(=O)CSc1ccccc1F | inconclusive: 12.6 µM [falling, single point] | –

Exported as labelled records: part of the list above
CC(CN1CCOCC1)OC(=O)c1ccc2c(c1)OCCO2 (stereo unspecified)
  Potency: inconclusive: 35.5 µM [falling, partial curve, poor fit]
CCN1CCN(c2cc(C)c3cc(NC(=O)c4cncc(Br)c4)ccc3n2)CC1
  Potency: inconclusive: 3.16 µM [falling, partial curve, poor fit]
